From PubChem BioAssay AID1794845 (National Center for Advancing Translational Sciences (NCATS), 2023)
Among all 6,900 compounds or so, fewer than 10 were called active. The call rests on the fitted dose curve; in most records, active means well fitted curve in the direction sought with a large enough effect; inconclusive means small, poorly fitted or top-dose-only effect, or another doubt; inactive means no such curve, though single readings can be large or run the other way. The list shows a part of the results.

Protein sequences, listed by entry. Tags and fused reporters are not part of them. Lines headed by an entry give the natural chain unless they say otherwise; changes in a name come on top.
UniProt C7C422: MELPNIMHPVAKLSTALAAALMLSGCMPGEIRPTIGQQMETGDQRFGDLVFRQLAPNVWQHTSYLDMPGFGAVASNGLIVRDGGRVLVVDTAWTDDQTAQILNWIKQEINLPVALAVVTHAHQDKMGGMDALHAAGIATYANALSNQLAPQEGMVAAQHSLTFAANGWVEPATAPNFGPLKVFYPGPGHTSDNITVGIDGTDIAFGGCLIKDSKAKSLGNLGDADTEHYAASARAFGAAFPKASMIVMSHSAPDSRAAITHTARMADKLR

Target: Metallo-beta-lactamase type 2 (Klebsiella pneumoniae) (UniProt C7C422)
Assay: qHTS to identify inhibitors of the New Delhi Metallo-beta-lactamase (NDM): primary screen against the NCATS Gemini Collection; further: % of control where 0% means no effect
Conditions: NDM-1 enzyme, meropenem hydrolysis, absorbance 300 nm; at 38.4 µM (top of the series) unless noted
Method in brief: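 Meropenem hydrolysis (50 uM final) by 2 nM NDM-1 read as 300 nm absorbance after 30 min, following >30 min compound–enzyme preincubation in HEPES pH 7.0 with 1 uM ZnSO4 and 0.01% Tween20.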

Q: Which activity % (negative = inhibition) does the source give for `CN(C)CCO[C@H]1C[C@@H](O)C12CCN(C(=O)Cc1ccc3ccccc3c1)CC2` here?
A: Its activity % (negative = inhibition) is inactive: 89.9%.

Q: For `O=C(N[C@H]1CCN2C(=O)N(c3cccc(C(F)(F)F)c3)C(=O)[C@@H]2C1)c1ccncc1`, which activity % (negative = inhibition) is on record?
A: Its activity % (negative = inhibition) is inactive: 18.7% [at 57.5 µM].

Q: `COC(=O)CNC(=O)c1nc(-c2ccc(Cl)cc2)c2ccccn12` was tested. Which activity % (negative = inhibition) did it give?
A: The activity % (negative = inhibition) was inactive: 17.1% [at 57.5 µM].

Q: For `Cc1ccc(CCNC(=O)C2CCN(c3cc(C(F)(F)F)ncn3)CC2)cc1`, which activity % (negative = inhibition) is on record?
A: The activity % (negative = inhibition) was inactive: 15.7%.

Q: How did the activity % (negative = inhibition) turn out when `CCn1nc(C(=O)N2C[C@@H](CN3CCN(C)CC3)[C@@H](CO)C2)cc1C` was run?
A: The activity % (negative = inhibition) was inactive: -0.228%.

Q: How did the activity % (negative = inhibition) turn out when `CC(C)c1noc([C@@H]2Cc3nc[nH]c3CN2C(=O)CC(C)(C)CC(=O)O)n1` was run?
A: The activity % (negative = inhibition) was inactive: 13.7% [at 57.5 µM].

Q: For `CC(=O)N1CCc2sc(C(=O)NC3CCN(Cc4ccccc4)CC3)cc2C1`, which activity % (negative = inhibition) is on record?
A: Its activity % (negative = inhibition) is inactive: -0.293%.

Q: `CC(C)N1Cc2cc(C(=O)NC3CCN(Cc4ccccc4)CC3)sc2C1` was tested. Which activity % (negative = inhibition) did it give?
A: Its activity % (negative = inhibition) is inactive: -0.112%.

Q: `COC(=O)C1=CN(CC(=O)N2CCN(c3ccc(F)cc3)CC2)S(=O)(=O)N=C1C` was tested. Which activity % (negative = inhibition) did it give?
A: Its activity % (negative = inhibition) is inactive: -0.268%.

Q: For `Cc1cc2nc3n(c(=O)c2n1CC(=O)NC1CCc2ccccc21)CCCCC3` (stereo not drawn), which activity % (negative = inhibition) is on record?
A: The activity % (negative = inhibition) was inactive: -1.38%.

Q: With `CC(C)CN(Cc1cccnc1)C1CN(C(=O)CCc2nc3ccccc3s2)C1` as the compound, how does the activity % (negative = inhibition) read?
A: The activity % (negative = inhibition) was inactive: -0.295%.

Q: For `CCN1c2cc(C(=O)NCCc3ccccc3)ccc2C(=O)N2CCCCC21` (stereo not drawn), which activity % (negative = inhibition) is on record?
A: The activity % (negative = inhibition) was inactive: 5.51%.

Q: For `COC[C@@H]1CN(S(=O)(=O)c2ccc(C)cc2)C[C@H]1c1ccncc1`, which activity % (negative = inhibition) is on record?
A: The activity % (negative = inhibition) was inactive: 8.01%.

Q: `O=C1COc2ccc(-c3ccoc3)nc2CN1Cc1ccccc1` was tested. Which activity % (negative = inhibition) did it give?
A: Its activity % (negative = inhibition) is inactive: 24.4% [at 57.5 µM].

Q: How did the activity % (negative = inhibition) turn out when `CCN1CCC2(CCC1=O)CN(Cc1nc(C(=O)NC)no1)CCN2C` (stereo not drawn) was run?
A: The activity % (negative = inhibition) was inactive: 0.0905%.

Q: For `COc1ccc(CN2CCc3nc(C(=O)NCCOc4ccccc4)oc3CC2)cn1`, which activity % (negative = inhibition) is on record?
A: The activity % (negative = inhibition) was inactive: 14.7% [at 57.5 µM].

Q: How did the activity % (negative = inhibition) turn out when `Cc1cnc(C2CC2)n1CC1CCNCC1` was run?
A: Its activity % (negative = inhibition) is inactive: 5.33%.

Q: Which activity % (negative = inhibition) does the source give for `CN(C)C[C@@H]1CN(C)C[C@H]1NC(=O)NCc1ccc(OC(F)(F)F)cc1` here?
A: The activity % (negative = inhibition) was inactive: -1.09%.

Q: Which activity % (negative = inhibition) does the source give for `COc1ccccc1-c1cc(C(=O)N2CCN(c3ncccn3)CC2)nn2cccc12` here?
A: Its activity % (negative = inhibition) is inactive: 14.1%.

Q: `COC(=O)[C@H](NC(=O)[C@@H]1[C@@H](NC(=O)Nc2ccc(F)cc2F)CCN1C(=O)CSC)C(C)C` was tested. Which activity % (negative = inhibition) did it give?
A: The activity % (negative = inhibition) was inactive: 7.45%.

Q: `Cc1cnc(C(=O)N2CCC3(CC2)C(=O)N(c2cccc(F)c2)C3c2ccccc2)cn1` (stereo not drawn) was tested. Which activity % (negative = inhibition) did it give?
A: Its activity % (negative = inhibition) is inactive: 0.971%.

Q: `O=C(c1nc2ncccn2n1)N1CCCn2cc(-c3ccccc3)nc21` was tested. Which activity % (negative = inhibition) did it give?
A: Its activity % (negative = inhibition) is inactive: 12.8%.

Q: Which activity % (negative = inhibition) does the source give for `CS(=O)(=O)N(Cc1cccnc1)C1CN(C(=O)C2CCCCC2)C1` here?
A: Its activity % (negative = inhibition) is inactive: -1.01%.
